Among the data in PubChem BioAssay AID200 (DTP/NCI, 2004) are T/C and survivor count values, retold here.

The list shows only some results of the screen, not a fair sample: its compounds were picked by chemical class. Other doses and runs of a compound may be missing. T/C is the treated group as % of the vehicle group. Some entries give survivors of the animals treated and no T/C: the source files T/C as zero there, which appears to mark a toxic dose or a test without result, not a measured value. Some survivor counts are full or nearly so, which does not show that the dose was tolerated: the source hardly ever lists a survival T/C far under the control, and the zero likely stands for such cases as well. Counts of survivors are from the toxicity check (mostly the fifth day) where no day follows; animals may have died later. Schedule codes are those of the source, taken here to give the interval after Q, in days (D) or hours (H), and the number of doses after X. Some entries were tested several times; the results are listed from low to high. For survival time, this PubChem deposit counts one and a half times the control or more as active, and values a quarter to a half above the control carry no call in these data; other NCI protocols may use other cut-offs. Some entries show no survivor count and are marked so; the dose need not have been tolerated. Some T/C values carry the count of animals alive at the toxicity check (mostly the fifth day); where neither a count nor a note follows, no animal had died by that day.

The test system of this experiment is B6C3F1 mice, B16 melanoma ip, median survival T/C. The experiment can be described thus: NCI In Vivo Anticancer Drug Screen. Data for tumor model B16 Melanoma (intraperitoneal) in B6C3F1 mice. Conditions: T/C endpoint: median survival time, higher T/C = longer survival. On the procedure: The antitumor activity of compounds was measured in mice bearing transplantable tumors. Survival or tumor size were measured and the results are expressed as the measurement made in the treated group (T) divided by the measurement made in the vehicle treated control group (C). The tumor model used in this assay is B16 Melanoma (intraperitoneal) in B6C3F1 mice

Where [1] appears, read: dose: 12.5 mg/kg/injection, schedule: Q01DX009 (ip), vehicle: Klucel (hydroxypropylcellulose) (HPC).
Where [2] appears, read: dose: 25.0 mg/kg/injection, schedule: Q01DX009 (ip), vehicle: Klucel (hydroxypropylcellulose) (HPC).
The mark [3] stands for this setting: dose: 50.0 mg/kg/injection, schedule: Q01DX009 (ip), vehicle: Klucel (hydroxypropylcellulose) (HPC).
Setting [4] is: dose: 100.0 mg/kg/injection, schedule: Q01DX009 (ip), vehicle: Klucel (hydroxypropylcellulose) (HPC).
Setting [5] is: dose: 3.12 mg/kg/injection, schedule: Q01DX009 (ip), vehicle: saline with Tween-80.
The mark [6] stands for this setting: dose: 6.25 mg/kg/injection, schedule: Q01DX009 (ip), vehicle: Klucel (hydroxypropylcellulose) (HPC).
The mark [7] stands for this setting: dose: 6.25 mg/kg/injection, schedule: Q01DX009 (ip), vehicle: saline with Tween-80.
The mark [8] stands for this setting: dose: 12.5 mg/kg/injection, schedule: Q01DX009 (ip), vehicle: saline with Tween-80.
Where [9] appears, read: dose: 25.0 mg/kg/injection, schedule: Q01DX009 (ip), vehicle: saline with Tween-80.
Where [10] appears, read: dose: 50.0 mg/kg/injection, schedule: Q01DX009 (ip), vehicle: saline with Tween-80.
Where [11] appears, read: dose: 400.0 mg/kg/injection, schedule: Q01DX001 (ip), vehicle: water.

Consider `Cc1ccc(N(CCCl)CCCl)cc1`, for which the T/C by setting is: under setting [1], 120 % of control; under setting [2], 147 % of control; under setting [3], 132 % of control; under setting [4], 135 % of control.

For the compound `ClCCN(CCCl)c1ccccc1`, the T/C was 100 and 117 % of control [9 of 10 alive] (dose: 3.12 mg/kg/injection, schedule: Q01DX009 (ip), vehicle: Klucel (hydroxypropylcellulose) (HPC)); 110 % of control under setting [5]; 102 and 123 % of control under setting [6]; 105 % of control [8 of 10 alive] under setting [7]; 117 and 145 % of control under setting [1]; 121 % of control under setting [8]. Besides, the T/C is 100 and 106 % of control under setting [2]; 102 % of control under setting [9]. The survivor count is 10 of 10 under setting [3]; 10 of 10 under setting [10]; 5 of 10 and 9 of 10 under setting [4]; 5 of 10 (dose: 100.0 mg/kg/injection, schedule: Q01DX009 (ip), vehicle: saline with Tween-80).

For the compound `C[N+](CCCl)(CCCl)Cc1ccc([N+](=O)[O-])cc1`, the T/C reads like this: (dose: 1.56 mg/kg/injection, schedule: Q01DX009 (ip), vehicle: saline) 107 % of control [survivor count not shown]; (dose: 2.5 mg/kg/injection, schedule: Q01DX009 (ip), vehicle: saline) 117 % of control [survivor count not shown]; (dose: 3.12 mg/kg/injection, schedule: Q01DX009 (ip), vehicle: saline) 115 % of control [survivor count not shown]; (dose: 5.0 mg/kg/injection, schedule: Q01DX009 (ip), vehicle: saline) 102 % of control [survivor count not shown]; (dose: 6.25 mg/kg/injection, schedule: Q01DX009 (ip), vehicle: saline) 123 % of control [survivor count not shown]; (dose: 10.0 mg/kg/injection, schedule: Q01DX009 (ip), vehicle: saline) 117 % of control [survivor count not shown]. In addition, the T/C (dose: 12.5 mg/kg/injection, schedule: Q01DX009 (ip), vehicle: saline) is 112 % of control [survivor count not shown].

`NC1CCCCC1.NP(=O)(O)N(CCCl)CCCl`: the T/C was 109 % of control (dose: 25.0 mg/kg/injection, schedule: Q01DX001 (ip), vehicle: water); 118 and 126 % of control (dose: 50.0 mg/kg/injection, schedule: Q01DX001 (ip), vehicle: water); 141 and 143 % of control (dose: 100.0 mg/kg/injection, schedule: Q01DX001 (ip), vehicle: water); 152 and 161 % of control (dose: 200.0 mg/kg/injection, schedule: Q01DX001 (ip), vehicle: water); 173 % of control under setting [11]. Also, the survivor count runs as follows: under setting [11], 7 of 10 on day 9; (dose: 800.0 mg/kg/injection, schedule: Q01DX001 (ip), vehicle: water) 1 of 10 on day 9.

Regarding `O=NN(CCSCCCl)C(=O)NC1CCCCC1`, the T/C was 118 and 141 % of control under setting [5]; 142 and 163 % of control under setting [7]; 185 and 214 % of control under setting [8]; 241 and 245 % of control under setting [9]; 288 % of control under setting [10].

As for `CC1=CC(=O)C(N(CCCl)CCCl)=CC1=O`, the T/C is, setting by setting: (dose: 0.37 mg/kg/injection, schedule: Q01DX009 (ip), vehicle: Klucel (hydroxypropylcellulose) (HPC)) 121 % of control; (dose: 0.75 mg/kg/injection, schedule: Q01DX009 (ip), vehicle: Klucel (hydroxypropylcellulose) (HPC)) 126 % of control; (dose: 1.5 mg/kg/injection, schedule: Q01DX009 (ip), vehicle: Klucel (hydroxypropylcellulose) (HPC)) 133 % of control; (dose: 3.0 mg/kg/injection, schedule: Q01DX009 (ip), vehicle: Klucel (hydroxypropylcellulose) (HPC)) 171 % of control.

In the case of `CCC(=O)N(c1ccccc1)C1CCNCC1`, the T/C by setting is: (dose: 50.0 mg/kg/injection, schedule: Q01DX009 (ip), vehicle: saline) 96 % of control [9 of 10 alive]; (dose: 100.0 mg/kg/injection, schedule: Q01DX009 (ip), vehicle: saline) 96 % of control. Besides, the survivor count (dose: 200.0 mg/kg/injection, schedule: Q01DX009 (ip), vehicle: saline) was 4 of 10.

For `CCOc1ccc(N(CCCl)CCCl)cc1`, the T/C under setting [6] was 152 % of control, the T/C under setting [1] was 167 % of control, the T/C under setting [2] is 183 % of control and the T/C under setting [3] is 183 % of control. Besides, under setting [4], the survivor count is on record as 10 of 10.

For `NCCN(CCCl)CCCl`, the T/C reads like this: (dose: 0.13 mg/kg/injection, schedule: Q01DX009 (ip), vehicle: saline) 123 % of control; (dose: 0.22 mg/kg/injection, schedule: Q01DX009 (ip), vehicle: saline) 139 % of control; (dose: 0.25 mg/kg/injection, schedule: Q01DX009 (ip), vehicle: saline with Tween-80) 179 % of control; (dose: 0.36 mg/kg/injection, schedule: Q01DX009 (ip), vehicle: saline) 190 % of control; (dose: 0.5 mg/kg/injection, schedule: Q01DX009 (ip), vehicle: saline with Tween-80) 235 % of control; (dose: 0.6 mg/kg/injection, schedule: Q01DX009 (ip), vehicle: saline) 198 % of control. Besides, the T/C by setting is: (dose: 1.0 mg/kg/injection, schedule: Q01DX009 (ip), vehicle: saline with Tween-80) 256 % of control; (dose: 1.0 mg/kg/injection, schedule: Q01DX009 (ip), vehicle: saline) 289 % of control; (dose: 1.67 mg/kg/injection, schedule: Q01DX009 (ip), vehicle: saline) 271 % of control.
